# Reference: PubChem BioAssay AID504774 (Drosophila RNAi Screening Center, 2011)
# Purpose: 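Fly genes whose loss alters survival after alkylation damage to DNA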 (primary screen)
# System: Drosophila Kc167 cells
# Reagents: long dsRNA against Drosophila genes, about 0.25 µg dsRNA per well
# Time to read-out: about 6 days: 3 days knock-down, then 3 days with or without MMS
# Conditions: methyl methanesulphonate 0.004% (w/v) for 3 days after knock-down
# Measured: 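Viability in wells given MMS, read as ATP luminescence, normalised by quantiles plate by plate and averaged across replicates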
# Direction: mean viability with MMS and viability with MMS: higher = more surviving cells after MMS
# In all, the deposit lists about 23,000 reagents; this is an unselected part of those that have a named target and a result. 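Values are quantile-normalised luminescence on an arbitrary scale; higher means more cells surviving MMS.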 The numbers tell different reagents against one gene apart. Names joined by + are all predicted targets of the reagent. Further read-outs or replicates are left out here.
predicted target,reagent,mean viability with MMS,"viability with MMS, replicate 1"
Zdhhc8,1,3.37e6,3.81e6
Zdhhc8,2,3.74e6,4.26e6
CG33791 + CG18170,1,3.56e6,4.06e6
CG33791 + CG18170,2,3.54e6,4.06e6
CG30356,1,3.55e6,3.98e6
NimC4,1,3.60e6,4.15e6
djl,1,3.45e6,3.96e6
Dhpr,1,3.35e6,3.72e6
CG3330,1,3.57e6,4.01e6
Grl36b,1,3.35e6,3.69e6

Sorted by “viability with MMS, replicate 1” (ascending): 2 of the entries above.
predicted target,reagent,mean viability with MMS,"viability with MMS, replicate 1"
CG30356,1,3.55e6,3.98e6
CG33791 + CG18170,2,3.54e6,4.06e6

More reagents follow.
predicted target,reagent,mean viability with MMS,"viability with MMS, replicate 1"
Axud1,1,3.46e6,3.97e6
Lis-1,1,3.52e6,4.03e6
Cp38,1,3.47e6,3.91e6
CG13252,1,3.51e6,4.03e6
Syx4,1,3.47e6,3.99e6
Taf5,1,3.18e6,3.64e6
Cf2,1,2.82e6,3.26e6
Cf2,2,3.66e6,4.17e6
l(3)72Dp,1,3.55e6,4.05e6
Fsn,1,3.62e6,4.15e6
nopo,1,3.56e6,4.00e6
MED20,1,3.23e6,3.63e6
Vha36-2,1,3.40e6,3.77e6
wun,1,3.65e6,4.20e6
karr,1,3.57e6,4.05e6
Oamb,1,3.39e6,3.86e6
Oamb,2,3.45e6,3.83e6
Oamb,3,3.57e6,3.90e6
